Results are given in words; binding and its absence hold for the method and conditions named. Binding seen in cells or lysates may run through a third protein. A yes stands for co-enrichment or nearness to the bait. Other partners may have been found.
Each binder was assayed against UTX-1::GFP (C. elegans) (assay: affinity purification with mass spectrometry; GFP-Trap beads on total protein extract (about 200 mg) of mixed eggs and adults of utx-1(tm3118) rescued with UTX-1::GFP; IP buffer 300 mM KCl, 0.1% Igepal, 1 mM EDTA, 1 mM MgCl2, 10% glycerol, 50 mM Tris HCl pH 7.4; elution with 0.1 M glycine pH 2.5; LC-MS/MS of 21 gel slices; N2 lysate as control).

binding | Binder
binds | MIX-1 (protein, UniProt Q09591 1-1244) MHIKSIHLDGFKSYQKHTDILDFSPTFNAITGYNGSGKSNILDSICFIMGINKLDNIRAKSMHELISHGGTKAIVQVRFDNTDKRCSPFGMEHLDEIVVQRIITAQATGKGCATSYTLNGHAATNGKMQDFFRGVGLNVNNPHFLIMQGRITTVLNMKPEEILGMVEEAAGTKMYDQKKKDAEKTMFLKDAKLKEVDRIFQSSIDPRMVKFREDRKNMVEVTRLKKLKENFSRKYEAFQYFQTCEAVKKSAKEIEDAKKGIEDLGEKFNQLDLDLKNKEDEKKKMEESRDDQHEEAALSAAHLSKQSIMLQKETVKNQLVETINKLKKEGEQINKSLSKDREVLDAKRKEHEDSKAANSKDIQSQSDDEALVTKYRNDLESLTRGTIANDKGEHVSIESEIQSCKSTASQMSSGITAAKKRGERLHNQIKHLEGEKATLSARSKSDIGSADNYQKEVDEINKQLQLLGFNIDADTEKREHAAKLHESITKLKDMDTRLLNSYKDGRYALNYQRPPLHIDKFDEKRDVFGYVAHLIKMKPGCEQFAVAADIALGGVLGNVVVSTQDIARILIDGKAFTSRKTMIPVSENARNASSYNTLPDVKLRRAKEIAEKYNDTVTKMIDLIEYPDFISNTILNAVGQILVVDSLDVAREIAYDEVAKTRMITRRGDDVRTNGIMTGGYNDPGNKPALIALEPMYARRPQIEAQQRELDALNRELQLTEASSQKCRDLNNQLATAMRKLAQVKTNINNSEFGIVVRDLKVHSEEYEKNQAEIEATVKTLKDVEDKIKTLESMKNKDKNSQEKRKKELTALLQKAEQTVAQNKNRGEKARREVMLLQATVEEMEKTIKKDEGIWEQKKKECDELEEKLPNAIAALKDAELEQKAAQAKLNDLKNNQRQISTRLGKIAKECDALIREKAKTKSKREEKEKELTSLQQSEASNRKEARSKLKKFEWLSDEEAHFNKKGGLYDFEGYTVSKGKDEIKELTDKIETLERSCCIQNVSNLDTCEAKVLDIKNKRERITEDFNMLKKTIATLDKKKVDELIRAHESVNKDFGQIFNCLLPDAHASLVPPEGKTVCEGLEVKVSFGGVVKDSLHELSGGQRSLVALSLILAMLKFKPAPLYILDEVDAALDLSHTANIGMMIKTHFHHNQFIIVSLKQGMFSNADVLFQTRFADGHSTCTRLNGGDIAVLCQDKVLQAQALELTDAGKAKKDAAAKKGAQKNDKEPPKKKPIVVDDDDFE
binds | RBBP-5 (protein, UniProt Q09309 1-454) MVEILDRTYGAQFPEELECHLDLQNASANCCKFNRWGSIVAVGCTDGRVLIYDFMTRNIARTFSAHCLPVSCLSWSRDGRKLLTSSADNSIAMFDVLAGTLLHRIRFNSMVTFAMFHPRNDNKAIVLQVNKQPTVEQFSPRIQTVLANDTPGSSDESASCVSYDRKGKYIIAGTGKGKLLIYNAETLKCVAWCKQNTVQQIRQIIVPMKSRFIITNTQDRVIRTYELEDLLHQRGQMVEAKYKVLDMVNKAAWKNVCTDSDGLYVCGASTKAHSLYIWESNTGSLIKILHGNKGEALLDVQWHPTRPIILSIAQGTVSMWTQAHVENWSAFAPEFQELEENEKYIEKENEFDMEDEDADEDMTSKSQDAEDDIIDVVNVRPEDYLASSDEEDCNIMKPARNLESGPLWYIPVPLDIENADNDQRLPDDIRNLDNLLNPAWVASAKGYELSPKSK
binds | ASH-2 (protein, UniProt G5EFZ3 1-570) MRSSKGGRGRQAAPKTAPTTVCYCDGKRELGSVEVVCSTCLKWFHGRCLKEFHELNSNGVPFMICYTFTCKQCRPTAEDWKAKKADLVQMCVTVLATLSAERLKADGKLSAEHVPEDFTYLSLKDEIVPYMNENWYMLTAIKQKKEWHQNLAPTLLKEKNIFVQHNDDDDLFALAEKNLSLLGPLHEAVKLIGKRPIERENREPRHIELPPIEGPKTRGASKRRHAEAPVTGKKQKLAADYSSTAAPNGVQIDIPFSKDNYRYYLTEVDPNVPEDPAWNQNQSSAYVIPSFHYRELLNPTVNVSSNDRAFQLSINGNSITGFEGYSMARASHGVSKGTWYFEVNFDDQPDDSHIRIGWSQSYASLQACVGYNKFSYGWRSKHGTKFHEAKGKKYHFGGFKQGDVLGCLIHLPVDKKLQIPANLPSEKYLPVSHKGFNLISFKANYFFEVQEESADIAKTLVEMPGSYIEFFHNGKSCGKAYENIYAGAYYPSISIFKSATATMNLGPKFRNLPRGATGIHARADEQQHEQTLSDMLYLVSKEVNLDHPPRVKREDDDDVKDIKKEIKQEI
